No constants are given. Whether binding was seen depends on the method and setting. In cells and extracts the contact can be indirect. Some binding calls cover weakened binding; strength is not graded here. Sequences can lack the tags named with a protein.
Target: T1, Entamoeba histolytica deoxyhypusine synthase 1 (EhDHS1) with the amino-terminal His-tag (E. histolytica) (UniProt C4LXB8)
T1 sequence: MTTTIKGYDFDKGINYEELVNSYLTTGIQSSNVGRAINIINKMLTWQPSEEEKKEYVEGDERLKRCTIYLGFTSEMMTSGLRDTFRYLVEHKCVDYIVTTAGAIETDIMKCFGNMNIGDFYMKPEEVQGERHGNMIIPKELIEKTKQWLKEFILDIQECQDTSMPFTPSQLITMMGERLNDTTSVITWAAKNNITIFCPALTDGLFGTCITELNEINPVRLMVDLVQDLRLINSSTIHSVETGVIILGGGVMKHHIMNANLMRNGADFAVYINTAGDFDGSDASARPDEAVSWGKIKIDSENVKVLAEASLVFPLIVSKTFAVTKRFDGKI
Test: pull-down

- binding: binds
B1: Entamoeba histolytica deoxyhypusine synthase 2 (EhDHS2) with the carboxyl-terminal S-tag (enzyme, UniProt C4M2N7 1-336)
chain: MSITGEEFAKVTSKVLGESKEYKGEKCIGYDFDNGVDFNKVMEKMKYTGFQALNLGLCIEQVNEMRKNHAKIFLGMSSNIVSSGLREVIHYLVKNKFVDAIVVTAGGIEEDFIKTMHPTLLGDFYFKGKELYPNGYNRIGNLILPNSNYCEFEDWMDPLLLECLKEQNEHGVHWTPSKLVHKMGESINNESSIYYWAAKNNIPVFSPAITDGSIGDMIFFFSYKNEGLVLDLVQDVIKIDEMAFNAEKVGCLLVGAGIAKHHILNAMKRRGGCDYCAMLSTSIECDASDAGSEIAADRTKGFFKPECNPAKVIGDATILLPLIVASTFAQKEEPTK
